From patent EP4089103A1 (priority 2021, dated 2022) come the findings set out here.

HELM strings list residues between dots; [ac] is acetyl, [am] amide, other brackets name non-standard units. A value given as a limit tells only on which side of the number the result lay.

The data set in a line: general procedure: Fmoc solid-phase peptide synthesis; 2-chlorotrityl resin (1.6 mmol g^-1 initial loading); HBTU/HOBt monohydrate/DIPEA; 2-bromo-1-ethyl-pyridinium tetrafluoroborate/DIPEA. The note with it: for cyclisation yield: cyclisation step; for step yield: late stage modification step.

As to “PEPTIDE1{V.[NMeGlu].I.W.[NMeLys].A.[Phe(3R-MeO)]}$PEPTIDE1,PEPTIDE1,1:R1-7:R2$$$V2.0”, the cyclisation yield is listed as 52% and the step yield is 21%.

In turn, “PEPTIDE1{V.[NMeLeu].I.W.[NMe5Hnv].A.F}$PEPTIDE1,PEPTIDE1,1:R1-7:R2$$$V2.0” displayed a cyclisation yield of 94% and a step yield of 35%.

For “PEPTIDE1{V.[NMeLeu].I.W.[NMeGlu(NHPr)].A.F}$PEPTIDE1,PEPTIDE1,1:R1-7:R2$$$V2.0”, the step yield amounted to 44%. Turning to “PEPTIDE1{V.[NMeLeu].I.W.[NMeGlu].A.F}$PEPTIDE1,PEPTIDE1,1:R1-7:R2$$$V2.0”, the cyclisation yield was 52% and the step yield was determined as 29%.

As to “PEPTIDE1{V.[NMeLeu].I.W.[NMeLys].A.F}$PEPTIDE1,PEPTIDE1,1:R1-7:R2$$$V2.0”, the cyclisation yield was found to be 75% and the step yield is recorded as 41%. On the same counts, the results for “PEPTIDE1{V.[NMeLeu].I.W.[NMeLys].A.[Phe(3R-MeO)]}$PEPTIDE1,PEPTIDE1,1:R1-7:R2$$$V2.0” are 88% and 16%. Substance “PEPTIDE1{V.[NMeLeu].I.W.[NMeLys].[Glu(TOTA-(+)JQ1)].[Phe(3R-MeO)]}$PEPTIDE1,PEPTIDE1,1:R1-7:R2$$$V2.0” displayed a step yield of 31%. Further, for the setting “on linear precursor”, the cyclisation yield was determined as 64%.

In turn, “PEPTIDE1{V.[NMeLeu].I.W.[NMeLys].[Glu(TOTA-Biotin)].[Phe(3R-MeO)]}$PEPTIDE1,PEPTIDE1,1:R1-7:R2$$$V2.0” gave a cyclisation yield of 63% and a step yield of 9%. As for “PEPTIDE1{V.[NMeLeu].I.W.[NMeOrn].A.F}$PEPTIDE1,PEPTIDE1,1:R1-7:R2$$$V2.0”, the cyclisation yield was greater than 98% and the step yield came to 28%. As to “PEPTIDE1{V.[NMeLeu].I.[Trp(prenyl)].[NMeLys].A.F}$PEPTIDE1,PEPTIDE1,1:R1-7:R2$$$V2.0”, the cyclisation yield came to 78% and the step yield worked out at 11%. On to “PEPTIDE1{V.[NMeLeu].I.[Trp(prenyl)].[NMeLys].A.[Phe(3R-MeO)]}$PEPTIDE1,PEPTIDE1,1:R1-7:R2$$$V2.0”, for which the cyclisation yield is on record as 65% and the step yield was found to be 12%.

In turn, “PEPTIDE1{V.[NMeLeu].[dehydro-isonorleucine].[Trp(prenyl)].[NMeLys].A.[Phe(3R-MeO)]}$PEPTIDE1,PEPTIDE1,1:R1-7:R2$$$V2.0” displayed a cyclisation yield of 81% and a step yield of 12%.
